From PubChem BioAssay AID540256 (National Center for Advancing Translational Sciences (NCATS), 2011)
Out of some 300,000 compounds screened, about 3,700 (1.2%) were called active. Inconclusive means that the source gave no clear call. Such entries were picked first, then a sample of the others. Calls follow the shape of the full dose curve; tested in HEK293 cells. Potencies beside an inconclusive call are fits to weak or partial responses and may not hold up.

Assay: qHTS for Inhibitors of binding or entry into cells for Lassa Virus; also: nearly all actives have a fitted effect of over 50% in size
Conditions: Lassa virus pseudotype entry inhibition, cell reporter; activity change, negative = inhibition: at 37.9 µM (top of the series) unless noted
% is scaled to controls: 0 for no effect and ±100 for the full control effect; potency is read from the fitted curve at half-maximal effect.

| SMILES | activity change, negative = inhibition | Potency |
| --- | --- | --- |
| Cc1cc(F)ccc1N1CCC(N2CCN(C(C)C)C(CCO)C2)CC1 (stereo not given) | inactive: -24.4% | – |
| COc1cc2c(cc1OC)-c1cc(OCc3cccnc3)nc(=O)n1CC2 | – | inconclusive: 32.6 µM [activator, single point] |
| CCOc1ccccc1CNC(=O)c1ccc(N2Cc3ccccc3Oc3ncccc32)s1 | inactive: -3.1% [at 46.1 µM] | – |
| CC(=O)NS(=O)(=O)c1ccc(N=NN2CCCCCC2)cc1 | – | inconclusive: 0.316 µM [inhibitor, full curve, poor fit] |
| CC(C)CC(=O)Nc1nc2nc(-c3ccccc3)cc(=O)n2[nH]1 | inactive: -1.12% [at 46.1 µM] | – |
| CCn1c(SCC(=O)N2CCC(C(N)=O)(N3CCCCC3)CC2)nnc1-c1ccccc1 | inactive: 2.5% | – |
| CCCCOc1ccc(C2=NC(c3cccs3)=Nc3ccc(CC)cc3N2)cc1 | – | inconclusive: 5.62 µM [activator, partial curve, poor fit] |
| COC(=O)c1c(Oc2ccc(OC)cc2)nnc(-c2ccccc2)c1-c1ccccc1 | – | inconclusive: 35.5 µM [inhibitor, single point] |
| CC(C)=CCC(C)(C)/C=N/NC(N)=O | – | inconclusive: 7.08 µM [activator, partial curve, poor fit] |
| Cn1c(CSc2nc3ccccc3s2)n[nH]c1=S | inactive: 1.24% | – |
| O=C(c1ccccc1)N1CCN(C(=O)c2cc3nc(-c4ccccc4)cc(C(F)(F)F)n3n2)CC1 | – | active: 11.2 µM |
| C=CCC1(C)C(=O)N(c2ccccc2)c2ccccc21 (stereo not given) | – | inconclusive: 32.6 µM [activator, partial curve, poor fit] |
| CCN(CC)S(=O)(=O)c1ccc(Cl)c(C(=O)Nc2nnc(C)s2)c1 | – | inconclusive: 6.51 µM [inhibitor, single point] |
| COc1ccc(CC(=O)Nc2ccc(-c3nc4cc(C)ccc4o3)c(O)c2)cc1OC | inactive: -0.368% | – |
| Cc1cccnc1-n1c(-c2ccco2)nc2ccccc2c1=O | inactive: 0.363% | – |
| Cc1cccc(NS(=O)(=O)c2cccc(C(=O)NNC(=O)c3ccccc3O)c2)c1 | – | inconclusive: 5.01 µM [inhibitor, full curve, poor fit] |
| CC1CCCC(C)N1C(=O)COc1ccc(C(=O)Nc2ccccc2N2CCOCC2)cc1 (stereo not given) | – | inconclusive: 17.8 µM [inhibitor, partial curve, poor fit] |
| CCN(c1ccccc1)S(=O)(=O)c1ccc(NC(=S)NC(=O)c2cccs2)cc1 | – | inconclusive: 22.4 µM [inhibitor, single point] |

Among those listed so far, these have four or more nitrogen atoms.

| SMILES | activity change, negative = inhibition | Potency |
| --- | --- | --- |
| CC(=O)NS(=O)(=O)c1ccc(N=NN2CCCCCC2)cc1 | – | inconclusive: 0.316 µM [inhibitor, full curve, poor fit] |
| CC(C)CC(=O)Nc1nc2nc(-c3ccccc3)cc(=O)n2[nH]1 | inactive: -1.12% [at 46.1 µM] | – |
| CCn1c(SCC(=O)N2CCC(C(N)=O)(N3CCCCC3)CC2)nnc1-c1ccccc1 | inactive: 2.5% | – |
| Cn1c(CSc2nc3ccccc3s2)n[nH]c1=S | inactive: 1.24% | – |
| O=C(c1ccccc1)N1CCN(C(=O)c2cc3nc(-c4ccccc4)cc(C(F)(F)F)n3n2)CC1 | – | active: 11.2 µM |
| CCN(CC)S(=O)(=O)c1ccc(Cl)c(C(=O)Nc2nnc(C)s2)c1 | – | inconclusive: 6.51 µM [inhibitor, single point] |

(continued)

| SMILES | activity change, negative = inhibition | Potency |
| --- | --- | --- |
| COc1ccc(NC(=O)C[C@@H]2C(=O)N(c3ccc(OC)cc3)CC2(C)C)cc1 | – | inconclusive: 28.1 µM [activator, single point] |
| CC1CN(C(=O)N2CCC(C(=O)N3CCN(c4ccccc4)CC3)CC2)c2cc(Cl)ccc2O1 (stereo not given) | – | inconclusive: 7.08 µM [inhibitor, partial curve, poor fit] |
| CCc1ccc(NC(=O)CSc2nnc(-c3ccco3)o2)cc1 | – | inconclusive: 12.6 µM [activator, partial curve, poor fit] |
| COc1cccc(CN2CCNC(=O)C2CC(=O)N(C)Cc2nc(C)cs2)c1OC (stereo not given) | inactive: -1.03% | – |
| CCCN1CCC(Oc2cccc(C(=O)NCCc3ccccc3)c2)CC1 | inactive: 15.3% | – |
| CCS(=O)(=O)c1ncc(Cl)c(C(=O)Nc2ccc(S(=O)(=O)N3CCC(C)CC3)cc2)n1 | – | inconclusive: 25.1 µM [inhibitor, single point] |
| Cc1ccc(-n2c(C)cc(/C=c3/sc4nc5ccccc5n4c3=O)c2C)cc1 | – | inconclusive: 8.91 µM [inhibitor, partial curve, poor fit] |
| O=C(CCC1CCCN(C(=O)c2ccc3cc[nH]c3c2)C1)N1CCN(c2ccccn2)CC1 (stereo not given) | – | inconclusive: 10 µM [inhibitor, partial curve, poor fit] |
| CC(C)(C)NS(=O)(=O)c1ccc(NC(=O)C2CCCCC2)cc1 | – | inconclusive: 5.62 µM [inhibitor, full curve, poor fit] |
| COc1ccc(Nc2nnc(-c3ccccc3)c3ccccc23)cc1C(=O)N1CCCCC1 | inactive: -12.8% [at 46.1 µM] | – |
| CCOc1ccc(C(=O)Nc2nnc(S(=O)(=O)Nc3ccccc3)s2)cc1 | inactive: 1.53% [at 46.1 µM] | – |
| Cc1ccc(-c2onc3ccc(C(=O)/C=C/N(C)C)cc23)cc1 | – | inconclusive: 12.6 µM [inhibitor, single point] |
| Cc1ccc(-c2nc3ncccn3c2Nc2ccc3c(c2)OCCO3)o1 | – | inconclusive: 25.1 µM [activator, single point] |
| CCOC(=O)c1ccc(N/C=C2\CCCCC2=O)cc1 | – | inconclusive: 20 µM [inhibitor, single point] |
| COC(=O)COc1ccc2oc(-c3ccc(OC)cc3)cc(=O)c2c1 | inactive: 21.2% [at 46.1 µM] | – |
| CCOC(=O)Cc1cnc(NC(=O)c2ccccc2)s1 | – | inconclusive: 29.1 µM [activator, single point] |
| COc1ccc(N2CCN(C(=O)c3cnn(-c4ccc(F)cc4)c3-n3cccc3)CC2)cc1 | – | inconclusive: 0.562 µM [activator, full curve, poor fit] |
